Reference: patent US20210171576A1, “METHODS FOR TREATING CANCER WITH ACYLDEPSIPEPTIDE ANALOGS” (priority 2018, published 2021)

B1: VDAC2 (protein, UniProt P45880 2-294, looked up)
Non-selective voltage-gated …: ATHGQTCARPMCIPPSYADLGKAARDIFNKGFGFGLVKLDVKTKSCSGVEFSTSGSSNTDTGKVTGTLETKYKWCEYGLTFTEKWNTDNTLGTEIAIEDQICQGLKLTFDTTFSPNTGKKSGKIKSSYKRECINLGCDVDFDFAGPAIHGSAVFGYEGWLAGYQMTFDSAKSKLTRNNFAVGYRTGDFQLHTNVNDGTEFGGSIYQKVCEDLDTSVNLAWTSGTNCTRFGIAAKYQLDPTASISAKVNNSSLIGVGYTQTLRPGVKLTLSALVDGKSINAGGHKVGLALELEA
B2: ACAA2 (protein, UniProt P42765 1-397, looked up)
3-ketoacyl-CoA thiolase, …: MALLRGVFVVAAKRTPFGAYGGLLKDFTATDLSEFAAKAALSAGKVSPETVDSVIMGNVLQSSSDAIYLARHVGLRVGIPKETPALTINRLCGSGFQSIVNGCQEICVKEAEVVLCGGTESMSQAPYCVRNVRFGTKLGSDIKLEDSLWVSLTDQHVQLPMAMTAENLAVKHKISREECDKYALQSQQRWKAANDAGYFNDEMAPIEVKTKKGKQTMQVDEHARPQTTLEQLQKLPPVFKKDGTVTAGNASGVADGAGAVIIASEDAVKKHNFTPLARIVGYFVSGCDPSIMGIGPVPAISGALKKAGLSLKDMDLVEVNEAFAPQYLAVERSLDLDISKTNVNGGAIALGHPLGGSGSRITAHLVHELRRRGGKYAVGSACIGGGQGIAVIIQSTA
B3: ACAT1 (protein, UniProt P24752 34-427, looked up)
Acetyl-CoA acetyltransferase, …: VSKPTLKEVVIVSATRTPIGSFLGSLSLLPATKLGSIAIQGAIEKAGIPKEEVKEAYMGNVLQGGEGQAPTRQAVLGAGLPISTPCTTINKVCASGMKAIMMASQSLMCGHQDVMVAGGMESMSNVPYVMNRGSTPYGGVKLEDLIVKDGLTDVYNKIHMGSCAENTAKKLNIARNEQDAYAINSYTRSKAAWEAGKFGNEVIPVTVTVKGQPDVVVKEDEEYKRVDFSKVPKLKTVFQKENGTVTAANASTLNDGAAALVLMTADAAKRLNVTPLARIVAFADAAVEPIDFPIAPVYAASMVLKDVGLKKEDIAMWEVNEAFSLVVLANIKMLEIDPQKVNINGGAVSLGHPIGMSGARIVGHLTHALKQGEYGLASICNGGGGASAMLIQKL
B4: ACO2 (protein, UniProt Q99798 28-780, looked up)
Aconitate hydratase, …: QRAKVAMSHFEPNEYIHYDLLEKNINIVRKRLNRPLTLSEKIVYGHLDDPASQEIERGKSYLRLRPDRVAMQDATAQMAMLQFISSGLSKVAVPSTIHCDHLIEAQVGGEKDLRRAKDINQEVYNFLATAGAKYGVGFWKPGSGIIHQIILENYAYPGVLLIGTDSHTPNGGGLGGICIGVGGADAVDVMAGIPWELKCPKVIGVKLTGSLSGWSSPKDVILKVAGILTVKGGTGAIVEYHGPGVDSISCTGMATICNMGAEIGATTSVFPYNHRMKKYLSKTGREDIANLADEFKDHLVPDPGCHYDQLIEINLSELKPHINGPFTPDLAHPVAEVGKVAEKEGWPLDIRVGLIGSCTNSSYEDMGRSAAVAKQALAHGLKCKSQFTITPGSEQIRATIERDGYAQILRDLGGIVLANACGPCIGQWDRKDIKKGEKNTIVTSYNRNFTGRNDANPETHAFVTSPEIVTALAIAGTLKFNPETDYLTGTDGKKFRLEAPDADELPKGEFDPGQDTYQHPPKDSSGQHVDVSPTSQRLQLLEPFDKWDGKDLEDLQILIKVKGKCTTDHISAAGPWLKFRGHLDNISNNLLIGAINIENGKANSVRNAVTQEFGPVPDTARYYKKHGIRWVVIGDENYGEGSSREHAALEPRHLGGRAIITKSFARIHETNLKKQGLLPLTFADPADYNKIHPVDKLTIQGLKDFTPGKPLKCIIKHPNGTQETILLNHTFNETQIEWFRAGSALNRMKELQQ

System: mitochondrial proteins of HEK293 T-REx cells
Test: Mitochondrial proteome profiling for WT and CLPP^−/− (fold change CLPP^−/−/WT)
Set-up: species or system human
Details: fold change of mitochondrial protein detected in CLPP knockout compared to WT HEK293 T-REx cells; MaxQuant total peptide ion intensity

Compared with B1, B2 is higher in “Avg. fold change (CLPP KO/WT)” value: −2.69 for the first, −1.27 for the second.

Going from B3 to B4, the “Avg. fold change (CLPP KO/WT)” value falls from 1.04 to −1.05.
